Among the data in article PMC10442334 are binding values, retold here.

Amino acid sequences for entries named in this document (tags omitted).
UniProt P35579: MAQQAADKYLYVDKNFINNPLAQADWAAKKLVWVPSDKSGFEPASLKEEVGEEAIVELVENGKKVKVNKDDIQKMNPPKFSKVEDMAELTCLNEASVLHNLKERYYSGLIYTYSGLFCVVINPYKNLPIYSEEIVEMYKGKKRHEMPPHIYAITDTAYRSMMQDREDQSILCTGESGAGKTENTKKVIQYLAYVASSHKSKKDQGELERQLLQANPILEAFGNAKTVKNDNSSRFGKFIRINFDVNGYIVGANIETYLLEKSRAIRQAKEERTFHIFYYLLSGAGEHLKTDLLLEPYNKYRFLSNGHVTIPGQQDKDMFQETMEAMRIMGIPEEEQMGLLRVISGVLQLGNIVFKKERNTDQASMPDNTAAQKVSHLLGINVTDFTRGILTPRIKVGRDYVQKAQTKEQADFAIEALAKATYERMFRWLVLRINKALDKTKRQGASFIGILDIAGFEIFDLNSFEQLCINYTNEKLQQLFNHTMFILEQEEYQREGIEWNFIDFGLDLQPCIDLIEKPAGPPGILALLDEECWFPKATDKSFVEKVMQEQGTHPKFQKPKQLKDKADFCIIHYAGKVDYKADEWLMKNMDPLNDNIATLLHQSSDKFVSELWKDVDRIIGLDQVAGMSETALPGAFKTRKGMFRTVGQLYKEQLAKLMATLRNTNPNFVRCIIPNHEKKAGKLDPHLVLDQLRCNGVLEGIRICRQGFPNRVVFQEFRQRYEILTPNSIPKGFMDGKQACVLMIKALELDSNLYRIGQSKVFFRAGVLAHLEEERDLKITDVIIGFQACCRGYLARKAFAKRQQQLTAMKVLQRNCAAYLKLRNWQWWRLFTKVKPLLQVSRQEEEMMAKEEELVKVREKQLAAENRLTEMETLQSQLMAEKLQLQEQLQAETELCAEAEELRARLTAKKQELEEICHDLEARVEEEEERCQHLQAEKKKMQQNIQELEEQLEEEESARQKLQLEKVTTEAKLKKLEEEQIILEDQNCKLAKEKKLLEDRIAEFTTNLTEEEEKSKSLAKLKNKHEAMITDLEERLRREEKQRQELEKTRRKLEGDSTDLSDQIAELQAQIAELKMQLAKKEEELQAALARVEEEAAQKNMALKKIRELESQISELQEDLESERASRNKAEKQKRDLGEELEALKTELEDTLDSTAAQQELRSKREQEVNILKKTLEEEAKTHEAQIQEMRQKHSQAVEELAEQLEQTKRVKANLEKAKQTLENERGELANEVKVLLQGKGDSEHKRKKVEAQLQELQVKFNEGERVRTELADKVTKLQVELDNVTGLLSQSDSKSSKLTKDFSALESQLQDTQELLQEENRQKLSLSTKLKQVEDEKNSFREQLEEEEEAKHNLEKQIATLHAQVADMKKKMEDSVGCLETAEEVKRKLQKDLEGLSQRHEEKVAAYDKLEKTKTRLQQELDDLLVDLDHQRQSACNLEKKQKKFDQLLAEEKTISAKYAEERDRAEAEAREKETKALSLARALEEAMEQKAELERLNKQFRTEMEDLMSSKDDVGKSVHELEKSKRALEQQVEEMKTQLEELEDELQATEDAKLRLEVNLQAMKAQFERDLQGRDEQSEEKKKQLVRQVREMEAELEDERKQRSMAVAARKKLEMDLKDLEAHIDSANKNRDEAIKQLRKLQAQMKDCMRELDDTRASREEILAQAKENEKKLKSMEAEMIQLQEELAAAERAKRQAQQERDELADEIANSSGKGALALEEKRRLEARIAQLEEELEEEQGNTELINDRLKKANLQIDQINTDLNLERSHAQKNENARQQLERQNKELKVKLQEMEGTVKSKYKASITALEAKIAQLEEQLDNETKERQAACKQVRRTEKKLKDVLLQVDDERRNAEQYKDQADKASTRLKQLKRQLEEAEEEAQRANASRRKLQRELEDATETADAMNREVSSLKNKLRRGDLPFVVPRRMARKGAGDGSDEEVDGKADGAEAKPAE

Sequences and labels used below:
B1: MCM6 (endogenous) (protein, UniProt Q14566 1-821)
chain: MDLAAAAEPGAGSQHLEVRDEVAEKCQKLFLDFLEEFQSSDGEIKYLQLAEELIRPERNTLVVSFVDLEQFNQQLSTTIQEEFYRVYPYLCRALKTFVKDRKEIPLAKDFYVAFQDLPTRHKIRELTSSRIGLLTRISGQVVRTHPVHPELVSGTFLCLDCQTVIRDVEQQFKYTQPNICRNPVCANRRRFLLDTNKSRFVDFQKVRIQETQAELPRGSIPRSLEVILRAEAVESAQAGDKCDFTGTLIVVPDVSKLSTPGARAETNSRVSGVDGYETEGIRGLRALGVRDLSYRLVFLACCVAPTNPRFGGKELRDEEQTAESIKNQMTVKEWEKVFEMSQDKNLYHNLCTSLFPTIHGNDEVKRGVLLMLFGGVPKTTGEGTSLRGDINVCIVGDPSTAKSQFLKHVEEFSPRAVYTSGKASSAAGLTAAVVRDEESHEFVIEAGALMLADNGVCCIDEFDKMDVRDQVAIHEAMEQQTISITKAGVKATLNARTSILAAANPISGHYDRSKSLKQNINLSAPIMSRFDLFFILVDECNEVTDYAIARRIVDLHSRIEESIDRVYSLDDIRRYLLFARQFKPKISKESEDFIVEQYKHLRQRDGSGVTKSSWRITVRQLESMIRLSEAMARMHCCDEVQPKHVKEAFRLLNKSIIRVETPDVNLDQEEEIQMEVDEGAGGINGHADSPAPVNGINGYNEDINQESAPKASLRLGFSEYCRISNLIVLHLRKVEEEEDESALKRSELVNWYLKEIESEIDSEEELINKKRIIEKVIHRLTHYDHVLIELTQAGLKGSTEGSESYEEDPYLVVNPNYLLED

Results are given in words; binding and its absence hold for the method and conditions named. In cells and extracts the contact can be indirect. A yes stands for co-enrichment or nearness to the bait. Other partners may have been found.

The assay has as its target FLAG-tagged NFIB (UniProt O00712). Nature of the assay: affinity purification with mass spectrometry; cellular extracts of U2OS stably expressing FLAG-NFIB on anti-FLAG M2 affinity gel, eluted with FLAG peptide (0.2 mg/ml), SDS-PAGE, silver stain, bands analysed by LC-MS/MS.
SPT16 (from UniProt Q9Y5B9 1-1047): the binding entry is on record as “binds”.
On to RPA1 (from UniProt P27694 1-616), for which the binding result is recorded as “binds”.
Under SSRP1 (from UniProt Q08945 1-709) stands “binds”; under MYH9 (from UniProt P35579 1-1960), “binds”; under B1, “binds”.
